Results are given in words; binding and its absence hold for the method and conditions named. In cells and extracts the contact can be indirect. Binding calls can cover weak binding; strength is not graded here.
Biological target: GFP-zRbm14b (zebrafish)
Assay: co-IP; GFP, GFP-mRbm14 or GFP-zRbm14b expressed in HeLa cells, immunoprecipitated with anti-GFP resin; immunoblot for endogenous hnRNP proteins

- binding: binds
B1: hnRNPL (human) (protein, UniProt P14866 1-589)
chain: MSRRLLPRAEKRRRRLEQRQQPDEQRRRSGAMVKMAAAGGGGGGGRYYGGGSEGGRAPKRLKTDNAGDQHGGGGGGGGGAGAAGGGGGGENYDDPHKTPASPVVHIRGLIDGVVEADLVEALQEFGPISYVVVMPKKRQALVEFEDVLGACNAVNYAADNQIYIAGHPAFVNYSTSQKISRPGDSDDSRSVNSVLLFTILNPIYSITTDVLYTICNPCGPVQRIVIFRKNGVQAMVEFDSVQSAQRAKASLNGADIYSGCCTLKIEYAKPTRLNVFKNDQDTWDYTNPNLSGQGDPGSNPNKRQRQPPLLGDHPAEYGGPHGGYHSHYHDEGYGPPPPHYEGRRMGPPVGGHRRGPSRYGPQYGHPPPPPPPPEYGPHADSPVLMVYGLDQSKMNCDRVFNVFCLYGNVEKVKFMKSKPGAAMVEMADGYAVDRAITHLNNNFMFGQKLNVCVSKQPAIMPGQSYGLEDGSCSYKDFSESRNNRFSTPEQAAKNRIQHPSNVLHFFNAPLEVTEENFFEICDELGVKRPSSVKVFSGKSERSSSGLLEWESKSDALETLGFLNHYQMKNPNGPYPYTLKLCFSTAQHAS

— PMC6796953
